# Experimental data published in the supplement of paper PMC12823440, “Inhibitors supercharge kinase turnover through native proteolytic circuits” (Nature, 2025).
# Protein sequences, listed by entry. Tags and fused reporters are not part of them. Lines headed by an entry give the natural chain unless they say otherwise; changes in a name come on top.
# UniProt P48729: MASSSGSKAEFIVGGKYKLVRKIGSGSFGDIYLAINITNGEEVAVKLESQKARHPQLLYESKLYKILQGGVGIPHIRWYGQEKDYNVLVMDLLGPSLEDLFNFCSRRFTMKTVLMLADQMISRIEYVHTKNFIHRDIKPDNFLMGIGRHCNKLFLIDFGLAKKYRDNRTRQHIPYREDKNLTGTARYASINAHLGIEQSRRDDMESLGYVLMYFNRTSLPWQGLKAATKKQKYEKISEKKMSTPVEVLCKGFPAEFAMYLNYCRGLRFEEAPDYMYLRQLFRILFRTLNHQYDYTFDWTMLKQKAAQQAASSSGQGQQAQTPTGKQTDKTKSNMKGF
# UniProt Q9Y463, whole entry, looked up: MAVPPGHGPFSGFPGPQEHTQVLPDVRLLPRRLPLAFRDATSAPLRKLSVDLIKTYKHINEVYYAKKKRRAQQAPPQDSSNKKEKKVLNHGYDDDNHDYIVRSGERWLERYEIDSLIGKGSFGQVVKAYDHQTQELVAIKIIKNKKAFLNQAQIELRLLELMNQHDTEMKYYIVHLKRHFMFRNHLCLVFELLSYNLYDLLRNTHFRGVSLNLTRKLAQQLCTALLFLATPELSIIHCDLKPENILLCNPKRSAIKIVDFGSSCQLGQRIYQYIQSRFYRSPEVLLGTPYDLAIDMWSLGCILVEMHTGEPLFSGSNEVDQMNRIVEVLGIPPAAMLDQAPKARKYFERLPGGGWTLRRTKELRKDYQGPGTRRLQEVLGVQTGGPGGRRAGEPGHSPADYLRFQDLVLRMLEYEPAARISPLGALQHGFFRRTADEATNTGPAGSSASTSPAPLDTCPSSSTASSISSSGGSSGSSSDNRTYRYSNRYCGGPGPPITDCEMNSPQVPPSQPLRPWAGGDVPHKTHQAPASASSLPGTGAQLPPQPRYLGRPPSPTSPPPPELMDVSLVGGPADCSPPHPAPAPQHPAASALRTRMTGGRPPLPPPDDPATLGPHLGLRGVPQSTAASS
# UniProt Q92630: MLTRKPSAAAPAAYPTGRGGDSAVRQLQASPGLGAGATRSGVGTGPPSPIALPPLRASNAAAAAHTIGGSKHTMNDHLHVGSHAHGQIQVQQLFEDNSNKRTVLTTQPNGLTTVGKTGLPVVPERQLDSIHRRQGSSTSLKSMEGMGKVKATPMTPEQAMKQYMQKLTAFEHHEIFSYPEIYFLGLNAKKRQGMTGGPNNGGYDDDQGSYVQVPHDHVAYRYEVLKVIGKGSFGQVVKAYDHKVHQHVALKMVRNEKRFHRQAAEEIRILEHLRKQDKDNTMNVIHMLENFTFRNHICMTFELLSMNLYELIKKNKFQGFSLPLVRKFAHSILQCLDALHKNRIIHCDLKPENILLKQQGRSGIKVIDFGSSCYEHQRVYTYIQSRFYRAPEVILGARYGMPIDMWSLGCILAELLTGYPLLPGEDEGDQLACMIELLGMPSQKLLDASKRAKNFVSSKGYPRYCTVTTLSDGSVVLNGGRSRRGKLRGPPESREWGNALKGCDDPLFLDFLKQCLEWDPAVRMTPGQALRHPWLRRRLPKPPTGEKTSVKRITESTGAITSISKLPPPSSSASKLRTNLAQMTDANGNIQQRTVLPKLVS
# UniProt P29317, whole entry: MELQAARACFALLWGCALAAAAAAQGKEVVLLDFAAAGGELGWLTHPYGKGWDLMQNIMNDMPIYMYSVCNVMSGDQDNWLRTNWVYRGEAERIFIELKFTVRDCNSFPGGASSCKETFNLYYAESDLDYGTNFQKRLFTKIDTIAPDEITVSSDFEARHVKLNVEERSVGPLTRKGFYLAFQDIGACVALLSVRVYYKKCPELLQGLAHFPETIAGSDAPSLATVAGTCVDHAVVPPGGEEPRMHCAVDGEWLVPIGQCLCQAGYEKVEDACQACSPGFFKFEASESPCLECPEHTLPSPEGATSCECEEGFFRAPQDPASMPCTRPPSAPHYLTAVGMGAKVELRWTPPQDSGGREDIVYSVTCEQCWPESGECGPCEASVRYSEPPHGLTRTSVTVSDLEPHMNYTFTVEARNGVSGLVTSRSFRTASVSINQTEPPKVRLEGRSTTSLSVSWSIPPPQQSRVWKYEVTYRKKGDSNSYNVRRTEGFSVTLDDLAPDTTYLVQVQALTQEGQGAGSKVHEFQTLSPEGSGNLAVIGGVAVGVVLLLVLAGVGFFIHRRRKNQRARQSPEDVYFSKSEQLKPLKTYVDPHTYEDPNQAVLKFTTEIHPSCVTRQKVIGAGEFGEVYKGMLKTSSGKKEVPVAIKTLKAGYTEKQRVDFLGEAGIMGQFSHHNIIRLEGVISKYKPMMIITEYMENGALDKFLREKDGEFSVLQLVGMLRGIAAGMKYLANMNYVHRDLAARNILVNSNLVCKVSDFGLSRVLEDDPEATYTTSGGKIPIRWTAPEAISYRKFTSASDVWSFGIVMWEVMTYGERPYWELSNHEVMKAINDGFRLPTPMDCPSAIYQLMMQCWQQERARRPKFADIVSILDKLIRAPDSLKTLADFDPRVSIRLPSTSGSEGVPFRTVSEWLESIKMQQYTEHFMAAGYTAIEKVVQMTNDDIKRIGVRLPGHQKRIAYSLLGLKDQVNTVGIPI
# UniProt Q15303, whole entry R711C: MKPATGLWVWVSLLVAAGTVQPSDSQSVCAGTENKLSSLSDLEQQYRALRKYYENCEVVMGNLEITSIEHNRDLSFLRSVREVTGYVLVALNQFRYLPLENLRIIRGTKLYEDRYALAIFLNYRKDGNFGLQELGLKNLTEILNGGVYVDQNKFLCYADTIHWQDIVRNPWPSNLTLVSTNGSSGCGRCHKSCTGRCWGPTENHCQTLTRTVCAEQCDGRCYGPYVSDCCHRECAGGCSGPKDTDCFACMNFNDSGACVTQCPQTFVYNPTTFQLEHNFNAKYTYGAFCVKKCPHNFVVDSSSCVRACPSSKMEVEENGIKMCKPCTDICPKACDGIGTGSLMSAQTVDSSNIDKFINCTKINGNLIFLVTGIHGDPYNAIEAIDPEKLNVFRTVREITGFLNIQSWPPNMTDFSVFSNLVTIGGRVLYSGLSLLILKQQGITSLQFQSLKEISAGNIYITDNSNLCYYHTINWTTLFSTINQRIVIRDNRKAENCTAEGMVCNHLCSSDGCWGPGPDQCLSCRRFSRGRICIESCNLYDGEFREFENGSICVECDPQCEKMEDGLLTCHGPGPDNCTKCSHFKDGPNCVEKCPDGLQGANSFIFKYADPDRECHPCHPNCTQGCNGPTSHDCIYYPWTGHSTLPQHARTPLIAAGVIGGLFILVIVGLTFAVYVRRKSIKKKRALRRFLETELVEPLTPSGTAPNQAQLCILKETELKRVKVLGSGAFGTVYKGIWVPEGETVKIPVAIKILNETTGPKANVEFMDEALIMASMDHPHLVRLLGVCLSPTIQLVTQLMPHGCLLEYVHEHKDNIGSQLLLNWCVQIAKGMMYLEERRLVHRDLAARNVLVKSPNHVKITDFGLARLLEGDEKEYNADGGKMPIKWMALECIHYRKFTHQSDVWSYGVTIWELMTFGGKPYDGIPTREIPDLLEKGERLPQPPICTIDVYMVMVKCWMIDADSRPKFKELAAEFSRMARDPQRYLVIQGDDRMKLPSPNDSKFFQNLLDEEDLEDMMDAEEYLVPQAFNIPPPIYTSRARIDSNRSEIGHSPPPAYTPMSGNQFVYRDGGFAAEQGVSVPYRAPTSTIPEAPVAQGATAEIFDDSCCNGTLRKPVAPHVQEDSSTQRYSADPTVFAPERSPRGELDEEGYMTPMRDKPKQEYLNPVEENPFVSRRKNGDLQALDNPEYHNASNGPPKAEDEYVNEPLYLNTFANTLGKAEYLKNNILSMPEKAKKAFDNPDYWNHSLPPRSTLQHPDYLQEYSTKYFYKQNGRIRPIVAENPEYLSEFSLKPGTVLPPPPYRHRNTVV
# UniProt O75460: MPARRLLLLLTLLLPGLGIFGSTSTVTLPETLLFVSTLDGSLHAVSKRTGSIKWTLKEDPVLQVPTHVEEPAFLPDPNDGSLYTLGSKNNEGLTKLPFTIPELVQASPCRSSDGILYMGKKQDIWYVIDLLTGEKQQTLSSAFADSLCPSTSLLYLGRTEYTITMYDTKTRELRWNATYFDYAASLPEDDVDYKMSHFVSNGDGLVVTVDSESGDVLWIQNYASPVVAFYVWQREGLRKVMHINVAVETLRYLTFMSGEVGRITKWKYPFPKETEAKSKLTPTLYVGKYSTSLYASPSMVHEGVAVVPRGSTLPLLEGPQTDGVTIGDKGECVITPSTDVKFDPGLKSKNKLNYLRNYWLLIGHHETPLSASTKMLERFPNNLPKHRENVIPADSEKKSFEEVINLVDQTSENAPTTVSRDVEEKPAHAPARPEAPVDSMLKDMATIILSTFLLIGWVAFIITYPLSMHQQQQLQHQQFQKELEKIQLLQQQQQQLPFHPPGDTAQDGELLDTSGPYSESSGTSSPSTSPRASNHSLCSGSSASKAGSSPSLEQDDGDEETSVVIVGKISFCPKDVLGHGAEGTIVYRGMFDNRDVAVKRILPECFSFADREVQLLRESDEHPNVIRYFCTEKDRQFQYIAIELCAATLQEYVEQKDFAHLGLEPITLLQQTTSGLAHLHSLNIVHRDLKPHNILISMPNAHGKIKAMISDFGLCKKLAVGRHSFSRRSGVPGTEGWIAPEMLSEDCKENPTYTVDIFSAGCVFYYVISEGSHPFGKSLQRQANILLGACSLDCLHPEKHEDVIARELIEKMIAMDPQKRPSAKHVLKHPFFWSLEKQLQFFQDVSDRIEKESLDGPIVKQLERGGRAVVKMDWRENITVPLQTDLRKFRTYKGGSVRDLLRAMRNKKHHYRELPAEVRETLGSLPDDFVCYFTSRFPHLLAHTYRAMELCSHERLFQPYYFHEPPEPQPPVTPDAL
# UniProt P11362, whole entry, looked up: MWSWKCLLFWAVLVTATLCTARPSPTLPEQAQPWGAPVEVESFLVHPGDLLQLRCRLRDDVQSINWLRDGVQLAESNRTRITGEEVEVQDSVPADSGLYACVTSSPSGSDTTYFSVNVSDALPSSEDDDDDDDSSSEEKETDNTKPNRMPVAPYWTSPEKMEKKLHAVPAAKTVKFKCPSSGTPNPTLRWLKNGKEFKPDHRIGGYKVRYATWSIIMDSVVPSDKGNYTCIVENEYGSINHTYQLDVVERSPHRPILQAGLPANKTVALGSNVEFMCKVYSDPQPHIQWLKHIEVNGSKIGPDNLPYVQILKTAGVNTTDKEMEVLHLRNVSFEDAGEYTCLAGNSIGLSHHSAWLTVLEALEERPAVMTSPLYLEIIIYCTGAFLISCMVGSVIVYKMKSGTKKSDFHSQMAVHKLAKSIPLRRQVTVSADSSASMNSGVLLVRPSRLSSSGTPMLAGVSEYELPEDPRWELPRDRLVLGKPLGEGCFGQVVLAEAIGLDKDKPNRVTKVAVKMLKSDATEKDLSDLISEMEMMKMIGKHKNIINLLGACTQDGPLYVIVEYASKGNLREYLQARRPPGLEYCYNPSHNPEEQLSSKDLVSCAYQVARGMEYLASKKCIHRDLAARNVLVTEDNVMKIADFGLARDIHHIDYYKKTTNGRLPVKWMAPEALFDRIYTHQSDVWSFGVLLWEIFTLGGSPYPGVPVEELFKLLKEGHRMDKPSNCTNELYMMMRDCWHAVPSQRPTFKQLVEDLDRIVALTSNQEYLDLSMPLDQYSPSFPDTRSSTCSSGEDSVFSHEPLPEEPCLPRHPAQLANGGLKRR
# UniProt P21802, whole entry, looked up: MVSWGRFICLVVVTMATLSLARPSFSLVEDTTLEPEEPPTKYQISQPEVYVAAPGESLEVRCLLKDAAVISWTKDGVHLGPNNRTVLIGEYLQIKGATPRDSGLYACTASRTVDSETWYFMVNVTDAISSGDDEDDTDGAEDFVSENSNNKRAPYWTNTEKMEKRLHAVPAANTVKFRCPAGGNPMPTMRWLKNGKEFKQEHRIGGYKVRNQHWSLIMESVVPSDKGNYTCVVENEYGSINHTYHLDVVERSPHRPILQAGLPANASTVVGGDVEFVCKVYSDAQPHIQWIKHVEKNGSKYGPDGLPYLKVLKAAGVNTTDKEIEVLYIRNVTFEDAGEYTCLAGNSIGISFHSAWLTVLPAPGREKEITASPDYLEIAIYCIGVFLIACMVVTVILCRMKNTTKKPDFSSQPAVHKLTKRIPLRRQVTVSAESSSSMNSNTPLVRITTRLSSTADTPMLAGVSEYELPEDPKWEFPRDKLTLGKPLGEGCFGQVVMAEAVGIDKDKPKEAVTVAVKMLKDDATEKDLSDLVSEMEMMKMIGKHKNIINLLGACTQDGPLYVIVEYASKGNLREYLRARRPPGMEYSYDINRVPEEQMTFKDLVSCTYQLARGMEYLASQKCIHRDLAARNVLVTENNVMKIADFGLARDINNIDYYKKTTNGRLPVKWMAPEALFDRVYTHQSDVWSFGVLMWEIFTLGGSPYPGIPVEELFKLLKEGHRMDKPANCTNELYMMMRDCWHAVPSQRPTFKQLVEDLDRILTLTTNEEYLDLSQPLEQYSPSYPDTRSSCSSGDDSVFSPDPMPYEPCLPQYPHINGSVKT
# Where a name gives a salt, the structure may show the parent alone. Some of the results follow. The calls rarely recur for the same compound in another form.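 Kinases, fused to nanoluciferase, were expressed in K562 cells; luminescence was measured every 4 h from 2 to 18 h as percent of control (DMSO = 100%, positive control = 0%). A time point is decreased if signal falls significantly (2 sigma). Hits were called by the authors by a rule that is not shown; the count of time points alone does not decide it.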
# Experiments:
# Assay in all cases: number of time points (of 5) at which kinase-Nluc abundance scored as decreased, DMSO-normalised (count); higher = more persistent destabilization
# Conditions in all cases: K562; 2-18 h
# CSNK1A1 = CSNK1A1 (UniProt P48729)
# CSNK1D = CSNK1D (UniProt P48730)
# DDR1 = DDR1 (UniProt Q08345)
# DYRK1B = DYRK1B (UniProt Q9Y463)
# DYRK2 = DYRK2 (UniProt Q92630)
# EGFR = EGFR (UniProt P00533)
# EGFR_G719S = EGFR_G719S (UniProt P00533)
# EGFR_G719S_T790M = EGFR_G719S_T790M (UniProt P00533)
# EGFR_L718V = EGFR_L718V (UniProt P00533)
# EGFR_L858R = EGFR_L858R (UniProt P00533)
# EGFR_L861Q = EGFR_L861Q (UniProt P00533)
# EGFR_T790M = EGFR_T790M (UniProt P00533)
# EPHA2 = EPHA2 (UniProt P29317)
# ERBB3 = ERBB3 (UniProt P21860)
# [1] = target: ERBB4_R711C (clone: ERBB4_mut) (UniProt Q15303)
# ERN1 = ERN1 (UniProt O75460)
# FGFR1 = FGFR1 (UniProt P11362)
# FGFR2 = FGFR2 (UniProt P21802)
# FGFR3 = FGFR3 (UniProt P22607)
# FGR = FGR (UniProt P09769)
SMILES,number of time points (CSNK1A1),number of time points (CSNK1D),number of time points (DDR1),number of time points (DYRK1B),number of time points (DYRK2),number of time points (EGFR),number of time points (EGFR_G719S),number of time points (EGFR_G719S_T790M),number of time points (EGFR_L718V),number of time points (EGFR_L858R),number of time points (EGFR_L861Q),number of time points (EGFR_T790M),number of time points (EPHA2),number of time points (ERBB3),number of time points [1],number of time points (ERN1),number of time points (FGFR1),number of time points (FGFR2),number of time points (FGFR3),number of time points (FGR)
COc1ccc(-c2cc(=O)c3c(O)cc(O)cc3o2)cc1-c1c(O)cc(O)c2c(=O)cc(-c3ccc(O)cc3)oc12 [Bilobetin] (2.5 µM),0,0,0,0,0,0,0,2,0,0,0,0,0,0,0,0,0,0,0,0
CNCc1ccccc1Sc1cccc2ccccc12 [IFN alpha-IFNAR-IN-1 (hydrochloride)] (10 µM),0,0,1,1,2,0,2,2,1,1,2,0,0,2,3,0,0,2,0,0
CC(=O)O[C@@H]1[C@@H](OC(C)=O)[C@@H](O)[C@H](Oc2c(-c3ccc(O)cc3)oc3cc(O)cc(O)c3c2=O)O[C@H]1C (10 µM),0,0,0,0,0,0,0,0,0,0,0,0,0,0,0,0,0,0,0,0
NC(=O)c1ccccc1Nc1ccnc(Nc2cccc(O)c2)n1 (10 µM),0,0,4,0,4,0,0,0,0,1,2,0,0,3,4,0,0,3,0,0
O=c1c(O)c(-c2ccc(O)c(O)c2)oc2cc(O)c(O)c(O)c12 [Quercetagetin] (10 µM),0,0,0,0,0,0,0,0,0,0,0,0,0,0,0,0,0,0,0,0
CCc1cc(Nc2nccc(-c3c(-c4ccc(OC)c(C(=O)Nc5c(F)cccc5F)c4)nc4ccccn34)n2)c(OC)cc1N1CCC(N2CCN(S(C)(=O)=O)CC2)CC1 (2.5 µM),0,0,0,0,0,0,0,0,0,0,0,0,0,0,0,0,0,0,0,0
Nc1ccc(-c2cccc(C(=O)Nc3cnc4nc(N5CCOCC5)oc4c3)n2)cn1 (10 µM),0,0,0,0,0,0,0,0,0,0,0,0,5,0,0,0,0,0,0,0
C[C@H](Nc1cc2c(-c3ccc4c(c3)OCO4)noc2cn1)c1ccccc1 (10 µM),0,0,0,0,0,0,0,0,0,0,0,0,0,0,0,0,0,0,0,0
N#Cc1cc(N2CCC(C(=O)N3N=CC[C@H]3c3cc(F)cc(F)c3)CC2)ncn1 (10 µM),0,0,0,0,0,0,0,0,0,0,0,0,0,0,0,0,0,0,0,0
Cc1cnc(Cl)nc1-c1ccc(N(Cc2ccc(CNC(=O)C(F)F)cc2)C(=O)c2ccc(O)cc2O)cc1 (10 µM),0,0,0,0,0,0,0,0,0,0,0,0,0,0,0,0,0,0,0,0
CC1(C)CN(C(=O)c2ccc(-c3cccc4nc(NC(=O)C5CC5)nn34)cc2)C1 [Solcitinib] (10 µM),0,0,0,0,0,0,0,0,0,0,0,0,0,0,0,0,0,0,0,0
COc1cc2ncnc(Nc3cc(Br)c(O)c(Br)c3)c2cc1OC (2.5 µM),0,0,0,0,0,0,0,0,0,0,0,0,0,0,0,0,0,0,0,0
CC(=O)O/N=C1/C(c2c(O)[nH]c3cc(Br)ccc23)=Nc2ccccc21 [BIO-acetoxime] (10 µM),0,0,0,0,0,0,0,0,0,0,0,0,0,0,0,0,0,0,0,0
O=C(COc1ccc(Cl)cc1)NC1CCC(NC(=O)COc2ccc(Cl)cc2)CC1 (stereo not drawn) [ISRIB (trans-isomer)] (10 µM),0,0,0,0,0,0,0,0,0,0,0,0,0,0,0,0,0,0,0,0
Cc1ncc(-c2cc(F)c(O)c(F)c2)cc1-c1cc(F)c(O)c(F)c1 (10 µM),0,0,0,0,0,0,0,0,0,0,0,0,0,0,0,0,0,0,0,0
O=C1Cc2ccccc2N1 [Oxindole] (10 µM),0,0,0,0,0,0,0,0,0,0,0,0,0,0,0,0,0,0,0,0
CO[C@@H]1[C@H](N(C)C(=O)c2ccccc2)C[C@H]2O[C@]1(C)n1c3ccccc3c3c4c(c5c6ccccc6n2c5c31)C(=O)NC4 [Midostaurin] (2.5 µM),0,0,1,0,1,0,0,0,0,0,2,0,0,1,0,0,2,0,0,0
Nc1nc(Nc2ccc3c(c2)CC[C@@H](N2CCCC2)CC3)nn1-c1cc2c(nn1)-c1ccccc1CCC2 [Bemcentinib] (2.5 µM),0,0,0,0,0,0,0,0,0,0,0,0,0,0,0,0,0,0,0,0
Nc1nccc(Oc2ccc3c(C(=O)Nc4cccc(C(F)(F)F)c4)cccc3c2)n1 (10 µM),0,0,0,1,4,0,0,0,0,0,0,0,1,3,2,0,0,0,0,0
NC(=O)c1cnc(N[C@@H]2CCCC[C@@H]2N)nc1Nc1cccc(-n2nccn2)c1 (2.5 µM),0,0,4,0,0,0,0,0,0,0,0,0,0,0,0,0,0,0,0,0
CN1CCC(Nc2nc(Nc3ccc(Oc4ccccc4)cc3)c3c(=O)[nH]cc(Br)c3n2)CC1 (2.5 µM),2,0,5,0,0,0,3,0,0,0,0,0,0,0,0,0,0,3,3,0
O=[N+]([O-])c1ccc(-c2nc(-c3ccc(F)cc3)c(-c3ccncc3)[nH]2)cc1 (10 µM),5,0,0,0,0,3,0,0,0,0,0,0,0,0,0,0,0,0,0,0

# Just number of time points (FGR) and number of time points (DYRK1B), for some of the entries so far:
SMILES | number of time points (FGR) | number of time points (DYRK1B)
CO[C@@H]1[C@H](N(C)C(=O)c2ccccc2)C[C@H]2O[C@]1(C)n1c3ccccc3c3c4c(c5c6ccccc6n2c5c31)C(=O)NC4 [Midostaurin] (2.5 µM) | 0 | 0
Nc1nc(Nc2ccc3c(c2)CC[C@@H](N2CCCC2)CC3)nn1-c1cc2c(nn1)-c1ccccc1CCC2 [Bemcentinib] (2.5 µM) | 0 | 0
